From PubChem BioAssay AID504847 (National Center for Advancing Translational Sciences (NCATS), 2011)
In all, about 400,000 compounds went through this assay and about 3,700 (0.93%) were called active. This list was built around the results that the source calls inconclusive (neither active nor inactive); the mix of calls is not that of the screen. The call rests on the fitted dose curve; in most records, active means well fitted inhibition curve with a large enough effect; inconclusive means small, poorly fitted or top-dose-only effect, or another doubt; inactive means no such curve, though single readings can be large or run the other way. A potency beside an inconclusive call is a rough fit, not a confirmed value. Where a SMILES comes first, the peptide text is derived from it. The star is where a group is joined. Cbz = O=C(OCc1ccccc1)*; CH2Cl = ClC*

By UniProt entry, the sequences of proteins in these tests, tags left out.
UniProt P11473, whole entry, looked up: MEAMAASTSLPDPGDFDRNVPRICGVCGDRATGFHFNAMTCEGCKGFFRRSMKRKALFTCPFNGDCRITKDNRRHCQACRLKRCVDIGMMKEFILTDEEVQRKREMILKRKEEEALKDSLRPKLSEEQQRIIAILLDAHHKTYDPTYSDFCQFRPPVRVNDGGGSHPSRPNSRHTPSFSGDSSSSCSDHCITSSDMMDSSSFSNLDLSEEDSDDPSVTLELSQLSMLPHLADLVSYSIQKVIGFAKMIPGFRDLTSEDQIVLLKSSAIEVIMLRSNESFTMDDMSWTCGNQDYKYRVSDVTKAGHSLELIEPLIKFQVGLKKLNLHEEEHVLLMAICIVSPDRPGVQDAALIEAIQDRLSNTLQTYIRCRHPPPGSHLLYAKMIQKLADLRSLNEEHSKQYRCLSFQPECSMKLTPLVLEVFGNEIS

Molecular target: Vitamin D3 receptor (Homo sapiens) (UniProt P11473)
Assay: Inhibitors of the vitamin D receptor (VDR): qHTS
Settings: VDR-SRC2-3 peptide fluorescence polarization, 2 h; max response, negative = inhibition: stronger effect = lower value
Summary of the method: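 Compounds are added to VDR with labelled SRC2-3 coactivator peptide and held 2 h at room temperature. Inhibition of the VDR–peptide interaction is then read as a change in fluorescence polarization.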
On the % scale 0 is the no-effect control and ±100 the full control effect; potency means the concentration at half of the fitted maximal effect.

Max response, negative = inhibition, inactive:
CCOC(=O)C1(CCOc2ccccc2)CCN(Cc2ccc(O)cc2)CC1 -2.13%
CCCCOc1ccccc1NC(=O)c1ccc(=O)[nH]c1 -20.7%
CN(C)S(=O)(=O)c1cccc(NC(=S)Nc2cc(Cl)cc(Cl)c2)c1 -10.4%
COc1cc(SC)ccc1C(=O)N1CCC(Cc2ccccc2)CC1 -14.6%
COc1cc(C#Cc2c(-c3ccccc3)n(C)c3ccccc23)cc(OC)c1 -2.4%
Cc1cc(C)c(S(=O)(=O)c2ccccc2C)c(Cl)n1 17.1%
S=c1[nH]nc(COc2ccc(Cl)cc2)n1-c1ccc(Cl)cc1 -7.34%
COC(=O)Cc1c(C)c2ccc(OCC(C)=O)c(C)c2oc1=O 6.6%
Cc1ccc(NC(=O)C2CCCN(c3ncnc4c3nc3n4CCCCC3)C2)cc1Cl (stereo not drawn) 1.92%
CCc1nnc(NC(=O)CSc2nc(-c3ccc(F)cc3)cc(-c3ccccc3)c2C#N)s1 6.68%
Cc1cccc(C)c1NC(=O)Cn1c(=O)cc(C)c2c(C)nn(-c3cccc(Cl)c3C)c21 8.98%
O=C(CN1CCN(C2CCCCC2)C(=O)C1=O)Nc1ccc(Cl)cc1 24.2%
COc1ccc(-c2cc(-c3ccc(Cl)cc3)c(C#N)c(SCC(=O)O)n2)cc1 -15.3%
O=[N+]([O-])c1cc(-c2nc(-c3ccccc3)no2)ccc1NC1CCCC1 17.4%
COc1ccccc1/C=C\C(=O)NCC(=O)N/N=C/c1ccc(O)cc1O -12.2%
O=C(COC(=O)/C=C/c1ccccc1[N+](=O)[O-])NC1CCS(=O)(=O)C1 (stereo not drawn) -6.66%
COc1cccc(C2=CC(c3ccc(OC)c(OC)c3)NC(=S)N2)c1 (stereo not drawn) 8.31%
CC(NC(=O)C1CCN(S(=O)(=O)c2ccc3nc4c(c(C(=O)O)c3c2)CCCC4)CC1)c1ccccc1 (stereo not drawn) -7.23%
CC(C)(C)c1ccc(NC(=O)Nc2ccc(F)cc2)cc1 -0.451%
COc1ccc(CNC(=O)Cn2nc(C)c3c(C)n(-c4ccccc4)nc3c2=O)cc1OC 3.95%
COC(=O)c1ccc(C(=O)NN)cc1 -3.68%
Cc1ccccc1NS(=O)(=O)c1cc(C(=O)NCc2ccco2)ccc1C 28.6%

Potency, inconclusive:
COc1ccc(Br)cc1CNC(=O)CCC(=O)n1nc(C)c2ccccc21 22.4 µM [inhibitor, partial curve, poor fit]
COCCn1c(N)c(C(=O)NCc2cccs2)c2nc3ccccc3nc21 63.1 µM [inhibitor, partial curve, poor fit]
CC(=O)Nc1ccc(SCC(=O)NC(=O)c2ccc(S(=O)(=O)N(C)C)cc2)cc1 79.4 µM [inhibitor, partial curve, poor fit]
CC(C)n1c(-c2ccco2)csc1=Nc1cccnc1 10 µM [inhibitor, partial curve, poor fit]
CCOc1ccccc1NC(=O)COc1coc(CN2CCCc3ccccc32)cc1=O 89.1 µM [inhibitor, partial curve, poor fit]
COc1cc(SC)ccc1C(=O)N1CCC(Cc2ccccc2)CC1 79.4 µM [inhibitor, partial curve, poor fit]
CN(C)c1ccc(NC(=O)CN2CCN(S(=O)(=O)c3cc(Cl)ccc3Cl)CC2)cc1 44.7 µM [inhibitor, single point]
CCN1CCOC(=O)C1CC(=O)Nc1cc(Cl)ccc1C (stereo not drawn) 89.1 µM [inhibitor, partial curve, poor fit]
COc1ccc2nc(SCC(=O)NCc3ccc(OC)c(OC)c3)[nH]c2c1 70.8 µM [inhibitor, single point]
COC(=O)c1ccc(C(=O)OC)c(NC(=O)c2cnn3c(C(F)F)cc(-c4ccc(C)cc4)nc23)c1 100 µM [inhibitor, partial curve, poor fit]
NC(=O)C1CCN(C(=O)COc2ccc3ccccc3c2Br)CC1 89.1 µM [inhibitor, single point]
Cc1ccc(CCN2CC(C(=O)NCCCN3CCC(C)CC3)CC2=O)cc1 (stereo not drawn) 39.8 µM [inhibitor, single point]
CC(=O)NCCC(=O)N(C)CC1CCN(CCc2cccc(C(F)(F)F)c2)CC1 15.8 µM [inhibitor, partial curve, poor fit]
CC(=S)/C=C1\Sc2ccccc2N1C 89.1 µM [inhibitor, partial curve, poor fit]
Cn1cc(P(=S)(N2CCOCC2)N2CCOCC2)cc1P(=O)(N1CCOCC1)N1CCOCC1 35.5 µM [inhibitor, partial curve]
CC(=C\c1ccccc1)/C=C1/SC(=S)N(C(C(=O)O)C(C)C)C1=O (stereo not drawn) 89.1 µM [inhibitor, partial curve, poor fit]
Cc1ccnc(NC(c2cccnc2)c2ccc3cccnc3c2O)c1 (stereo not drawn) 39.8 µM [inhibitor, single point]
O=C1Nc2ccccc2C1(O)C/C(=N/O)c1ccccc1 (stereo not drawn) 89.1 µM [inhibitor, single point]
Cc1ccc(C)n1-c1ccc(N(C)C)cc1 0.708 µM [inhibitor, full curve, poor fit]
O=C(CC12CC3CC(C1)CC(CC(=O)NC1=NCCS1)(C3)C2)NC1=NCCS1 89.1 µM [inhibitor, single point]
COc1ccc(-c2nn(-c3ccccc3)cc2C(=O)NC(=S)Nc2cc(Cl)ccc2Cl)cc1 89.1 µM [inhibitor, single point]
CCc1sc(/C=C(/C#N)C(N)=S)cc1[N+](=O)[O-] 79.4 µM [inhibitor, partial curve, poor fit]
COc1ccc(S(=O)(=O)N2CCCC2C(=O)Nc2nnc(-c3cccnc3)s2)cc1 (stereo not drawn) 79.4 µM [inhibitor, partial curve, poor fit]
COC1(OC)N=C(NC(=O)Nc2ccccc2)C2(C#N)C(c3ccccc3)C12C#N (stereo not drawn) 20 µM [inhibitor, full curve, poor fit]
Cc1cccc(C(=O)NC2CCN(C(=O)Nc3ccccc3C)CC2)c1 89.1 µM [inhibitor, partial curve, poor fit]
CC1=NN(c2ccc(C)cc2C)C(=O)C1C(c1ccccc1)C1C(=O)N(c2ccc(C)cc2C)N=C1C (stereo not drawn) 56.2 µM [inhibitor, partial curve, poor fit]
CC(NC(=O)C1CCN(S(=O)(=O)c2ccc3nc4c(c(C(=O)O)c3c2)CCCC4)CC1)c1ccccc1 (stereo not drawn) 79.4 µM [inhibitor, partial curve, poor fit]
S=c1[nH]c2ccccc2c2ccccc12 89.1 µM [inhibitor, partial curve, poor fit]
COc1ccc(-c2cc(C(=O)Nc3sc4c(c3C#N)CCCC4)no2)cc1OC 100 µM [inhibitor, single point]
O=C(CSc1nc2ccccc2[nH]1)N=Nc1c(O)[nH]c2ccccc12 89.1 µM [inhibitor, single point]
COc1ccccc1N1CCN(C(=O)C2CCCN(S(=O)(=O)c3ccc(C)cc3)C2)CC1 (stereo not drawn) 89.1 µM [inhibitor, partial curve, poor fit]
O=C(CSc1nc2cc(S(=O)(=O)N3CCOCC3)ccc2o1)NC1CCCc2ccccc21 (stereo not drawn) 56.2 µM [inhibitor, partial curve, poor fit]
Cn1nc(C(=O)Nc2nc(-c3ccccn3)cs2)c2ccccc2c1=O 89.1 µM [inhibitor, single point]
COc1ccc2nc(-c3ccccn3)[nH]c2c1 79.4 µM [inhibitor, partial curve]
Cc1ccc(NC(=O)c2c(NC(=O)c3ccccc3)sc3c2CCC3)cc1 100 µM [inhibitor, single point]
CC1=C(CC/C(C)=N/NC(N)=S)C(C)(C)CCC1 63.1 µM [inhibitor, partial curve, poor fit]
O=C(Cn1c(=O)oc2ccc(Cl)cc21)NC1CCCCC1 1.26 µM [inhibitor, full curve, poor fit]
CCOC(=O)C1=NOC(COc2ccccc2C=O)C1 (stereo not drawn) 89.1 µM [inhibitor, single point]

Not a retest: an excerpt of the list.
Potency, inconclusive:
S=c1[nH]c2ccccc2c2ccccc12 89.1 µM [inhibitor, partial curve, poor fit]
COc1ccc(-c2cc(C(=O)Nc3sc4c(c3C#N)CCCC4)no2)cc1OC 100 µM [inhibitor, single point]
O=C(CSc1nc2ccccc2[nH]1)N=Nc1c(O)[nH]c2ccccc12 89.1 µM [inhibitor, single point]
COc1ccccc1N1CCN(C(=O)C2CCCN(S(=O)(=O)c3ccc(C)cc3)C2)CC1 (stereo not drawn) 89.1 µM [inhibitor, partial curve, poor fit]
O=C(CSc1nc2cc(S(=O)(=O)N3CCOCC3)ccc2o1)NC1CCCc2ccccc21 (stereo not drawn) 56.2 µM [inhibitor, partial curve, poor fit]
Cn1nc(C(=O)Nc2nc(-c3ccccn3)cs2)c2ccccc2c1=O 89.1 µM [inhibitor, single point]
COc1ccc2nc(-c3ccccn3)[nH]c2c1 79.4 µM [inhibitor, partial curve]
Cc1ccc(NC(=O)c2c(NC(=O)c3ccccc3)sc3c2CCC3)cc1 100 µM [inhibitor, single point]
CC1=C(CC/C(C)=N/NC(N)=S)C(C)(C)CCC1 63.1 µM [inhibitor, partial curve, poor fit]
O=C(Cn1c(=O)oc2ccc(Cl)cc21)NC1CCCCC1 1.26 µM [inhibitor, full curve, poor fit]
CCOC(=O)C1=NOC(COc2ccccc2C=O)C1 (stereo not drawn) 89.1 µM [inhibitor, single point]

Next part:

Potency, active:
O=C1C=C(NCCc2cc(Br)c(O)c(Br)c2)C(=O)c2ncccc21 31.6 µM
CC(NC(=O)/C(C#N)=C/c1ccc([N+](=O)[O-])o1)c1ccccc1 (stereo not drawn) 25.1 µM
Cc1ccc2c(c1)C(=O)C(=O)N2Cc1ccc(C(F)(F)F)cc1 25.1 µM
Cc1nn(-c2ccccc2)c(OC(=O)C(C)(C)C)c1Sc1ccccc1 79.4 µM
COC(=O)c1ccc(-n2c(C)cc(C(=O)CCl)c2C)cc1 79.4 µM
Cc1cccc(NC(=S)NNc2cccc(Cl)c2)c1 28.2 µM
Cc1[nH][nH]c(=O)c1C(c1ccc(-c2ccc(Cl)c(C(=O)O)c2)o1)c1c(C)[nH][nH]c1=O 39.8 µM
CC(C)CC(NC(=O)OCc1ccccc1)C(=O)NC(Cc1ccccc1)C(=O)CCl (stereo not drawn) (Cbz-Leu-Phe-CH2Cl; configuration not given here) 70.8 µM
